Laboratory results as given in PubChem BioAssay AID248 (DTP/NCI, 2004).
The list is a part of this screen's results and no random one: it is rich in T/C values a quarter to a half above the control, in often repeated tests (any T/C) and in doses without a T/C. Further doses and runs are listed elsewhere. T/C: endpoint of the treated group in % of that of the vehicle group. Some doses have a count of surviving animals in place of a T/C: the source files T/C as zero there, which appears to mark a toxic dose or a test without result, not a measured value. Some doses without a T/C left all or most animals alive at the check, yet need not have been tolerated: survival well below the control is almost never listed, so the zero probably covers shortened survival too. Survivors were counted at the toxicity check, usually on the fifth day, unless a day is given; later deaths do not show. Schedule codes are those of the source, taken here to give the interval after Q, in days (D) or hours (H), and the number of doses after X. Some entries hold several experiments; their values stand side by side, smallest first. Some structures stand for samples that the source files as different forms (salt, stereo form or complex); doses refer to the form tested. For survival time, this PubChem deposit counts one and a half times the control or more as active, and values a quarter to a half above the control carry no call in these data; other NCI protocols may use other cut-offs. Some schedules carry Z or #; the key to these is not given. Some T/C values are followed by the survivors on the day toxicity was checked, most often the fifth; without a count, all were alive then.

Tested on: L1210 leukemia ip in BDF1 mice, survival T/C
Experiment: NCI In Vivo Anticancer Drug Screen. Data for tumor model L1210 Leukemia (intraperitoneal) in B6D2F1 (BDF1) mice
Conditions: T/C endpoint: mean survival time, higher T/C = longer survival
[1] = dose: 400.0 mg/kg/injection, schedule: Q01DX001 (ip), vehicle: carboxymethylcellulose (CMC)
[2] = dose: 600.0 mg/kg/injection, schedule: Q01DX001 (ip), vehicle: carboxymethylcellulose (CMC)
[3] = dose: 300.0 mg/kg/injection, schedule: Q04DX003 (ip), vehicle: saline
[4] = dose: 400.0 mg/kg/injection, schedule: Q01DX009 (ip), vehicle: Klucel (hydroxypropylcellulose) (HPC)
[5] = dose: 400.0 mg/kg/injection, schedule: Q04DX003 (ip), vehicle: saline
[6] = dose: 200.0 mg/kg/injection, schedule: Q04DX003 (ip), vehicle: saline with Tween-80
[7] = dose: 400.0 mg/kg/injection, schedule: Q04DX003 (ip), vehicle: saline with Tween-80
[8] = dose: 400.0 mg/kg/injection, schedule: Q04DX003 (ip), vehicle: Klucel (hydroxypropylcellulose) (HPC)
[9] = dose: 100.0 mg/kg/injection, schedule: Q04DX003 (ip), vehicle: saline with Tween-80
[10] = dose: 200.0 mg/kg/injection, schedule: Q01DX009 (ip), vehicle: Klucel (hydroxypropylcellulose) (HPC)

With CCCCCCCC/C=N/Nc1nnc(N/N=C/CCCCCCCC)c2ccccc12 the survivor count (dose: 266.0 mg/kg/injection, schedule: Q01DX001 (ip), vehicle: carboxymethylcellulose (CMC)) was 1 of 4, the T/C [1] was 125 % of control and the survivor count [1] was 1 of 4. For the same molecule, the survivor count [2] was 0 of 4.

For CCOC(=O)c1ccc2c(ccc[n+]2C)c1, the survivor count [3] was 0 of 6.

For COC1C(O)C(CO)OC1n1cnc2c(=S)nc[nH]c21 (stereo not given), the T/C (dose: 200.0 mg/kg/injection, schedule: Q01DX001 (ip), vehicle: carboxymethylcellulose (CMC)) was 129 % of control.

With Cc1cccc[n+]1C the survivor count (dose: 400.0 mg/kg/injection, schedule: Q01DX001 (ip), vehicle: Klucel (hydroxypropylcellulose) (HPC)) was 0 of 3 and the survivor count [1] was 0 of 4.

For NNC(=O)c1ccc(Cl)cc1Nc1ccccc1, the survivor count [4] was 1 of 6.

In the case of COc1ccccc1NC(=S)N1CCC(CCCC2CCN(C(=S)Nc3ccccc3OC)CC2)CC1, the survivor count [4] is reported as 6 of 6.

With CCN1c2ccccc2C(Cl)(c2ccc(N(C)C)cc2)c2ccccc21 the survivor count (dose: 20.0 mg/kg/injection, schedule: Q03HX024 (ip), vehicle: saline) was 0 of 10, the survivor count (dose: 30.0 mg/kg/injection, schedule: Q03HX024 (ip), vehicle: saline) was 0 of 10 and the survivor count (dose: 45.0 mg/kg/injection, schedule: Q01DX009 (ip), vehicle: saline) was 8 of 10. The survivor count (dose: 45.0 mg/kg/injection, schedule: Q03HX024 (ip), vehicle: saline) was 0 of 10, the survivor count (dose: 50.0 mg/kg/injection, schedule: Q01DX001 (ip), vehicle: saline) was 0 of 6 and the survivor count (dose: 59.0 mg/kg/injection, schedule: Q01DX001 (ip), vehicle: saline) was 3 of 10. For the same molecule, the survivor count (dose: 59.0 mg/kg/injection, schedule: Q04DX003 (ip), vehicle: saline) was 2 of 10, the survivor count (dose: 88.0 mg/kg/injection, schedule: Q01DX001 (ip), vehicle: saline) was 0 of 10 and the survivor count (dose: 88.0 mg/kg/injection, schedule: Q04DX003 (ip), vehicle: saline) was 0 of 10 and 1 of 10. For the same molecule, the survivor count (dose: 100.0 mg/kg/injection, schedule: Q01DX001 (ip), vehicle: saline) was 0 of 6, the survivor count (dose: 100.0 mg/kg/injection, schedule: Q04DX003 (ip), vehicle: saline) was 0 of 6 and the survivor count (dose: 134.0 mg/kg/injection, schedule: Q01DX001 (ip), vehicle: saline) was 0 of 10. The survivor count (dose: 134.0 mg/kg/injection, schedule: Q04DX003 (ip), vehicle: saline) was 0 of 10, the survivor count (dose: 200.0 mg/kg/injection, schedule: Q01DX001 (ip), vehicle: saline) was 0 of 10 and 0 of 6 and the survivor count (dose: 200.0 mg/kg/injection, schedule: Q04DX003 (ip), vehicle: saline) was 0 of 10 and 0 of 6. For the same molecule, the survivor count (dose: 300.0 mg/kg/injection, schedule: Q01DX001 (ip), vehicle: saline) was 0 of 10, the survivor count [3] was 0 of 10 and the survivor count (dose: 400.0 mg/kg/injection, schedule: Q01DX001 (ip), vehicle: saline) was 0 of 6. For the same molecule, the survivor count [5] was 0 of 6, the survivor count (dose: 450.0 mg/kg/injection, schedule: Q01DX001 (ip), vehicle: saline) was 0 of 10 and the survivor count (dose: 450.0 mg/kg/injection, schedule: Q04DX003 (ip), vehicle: saline) was 0 of 10.

With ClCC(Cl)CN1CCCCC1 (stereo not given) the survivor count [6] was 5 of 6 and the survivor count [7] was 3 of 6.

For CCCN(CC#N)CCC, the survivor count (dose: 12.0 mg/kg/injection, schedule: Q01DX009 (ip), vehicle: Klucel (hydroxypropylcellulose) (HPC)) was 1 of 6, the survivor count (dose: 25.0 mg/kg/injection, schedule: Q01DX009 (ip), vehicle: Klucel (hydroxypropylcellulose) (HPC)) was 1 of 6 and the survivor count (dose: 25.0 mg/kg/injection, schedule: Q04DX003 (ip), vehicle: Klucel (hydroxypropylcellulose) (HPC)) was 2 of 6. For the same molecule, the survivor count (dose: 50.0 mg/kg/injection, schedule: Q01DX009 (ip), vehicle: Klucel (hydroxypropylcellulose) (HPC)) was 0 of 6, the survivor count (dose: 50.0 mg/kg/injection, schedule: Q04DX003 (ip), vehicle: Klucel (hydroxypropylcellulose) (HPC)) was 0 of 6 and the survivor count (dose: 100.0 mg/kg/injection, schedule: Q04DX003 (ip), vehicle: Klucel (hydroxypropylcellulose) (HPC)) was 0 of 6. For the same molecule, the survivor count (dose: 200.0 mg/kg/injection, schedule: Q04DX003 (ip), vehicle: Klucel (hydroxypropylcellulose) (HPC)) was 0 of 6 and the survivor count [8] was 0 of 6.

O=C(C=C(C(F)(F)F)C(F)(F)F)c1ccccc1Cl was tested, and the survivor count [9] was 6 of 6, the survivor count [6] was 3 of 6 and the survivor count [7] was 0 of 6.

Cc1ccc(NC(=O)Oc2cccnc2)cc1 was tested, and the survivor count (dose: 100.0 mg/kg/injection, schedule: Q01DX009 (ip), vehicle: Klucel (hydroxypropylcellulose) (HPC)) was 3 of 6, the survivor count [10] was 4 of 6 and the survivor count [4] was 0 of 6.

CCOP(=O)(OCC)OCCCN(CC)CC was tested, and the survivor count (dose: 400.0 mg/kg/injection, schedule: Q01DX009 (ip), vehicle: saline) was 3 of 6 and the survivor count [5] was 4 of 6.

In the case of CC1(C)OCC(CO)(Nc2nc(N3CC3)nc(N3CC3)n2)CO1, the T/C (dose: 1.25 mg/kg/injection, schedule: Q01DX009 (ip), vehicle: saline) is reported as 129 % of control [5 of 6 alive] and the survivor count (dose: 10.0 mg/kg/injection, schedule: Q01DX009 (ip), vehicle: saline) is reported as 5 of 6.

For O=C(NCCCCCCCCCCNC(=O)Nc1ccc(C2=NCCCN2)cc1)Nc1ccc(C2=NCCCN2)cc1, the T/C (dose: 8.0 mg/kg/injection, schedule: Q01DX009 (ip), vehicle: other) was 130 % of control, the T/C (dose: 12.5 mg/kg/injection, schedule: Q01DX009 (ip), vehicle: other) was 127 % of control and the T/C (dose: 12.5 mg/kg/injection, schedule: Q01DX Z (ip), vehicle: carboxymethylcellulose (CMC)) was 146 % of control. For the same molecule, the T/C (dose: 19.0 mg/kg/injection, schedule: Q01DX009 (ip), vehicle: other) was 144 % of control, the survivor count (dose: 29.0 mg/kg/injection, schedule: Q01DX009 (ip), vehicle: other) was 0 of 6 and the survivor count (dose: 75.0 mg/kg/injection, schedule: Q01DX001 (ip), vehicle: other) was 1 of 6. The survivor count (dose: 150.0 mg/kg/injection, schedule: Q01DX001 (ip), vehicle: other) was 1 of 6 and the survivor count (dose: 300.0 mg/kg/injection, schedule: Q01DX001 (ip), vehicle: other) was 0 of 6.

CCCCCCCCCCCCCCC(F)C(=O)O (stereo not given) was tested, and the survivor count [10] was 6 of 6 and the survivor count [8] was 3 of 6.

With c1nc(SC2CCCC2)c2[nH]cnc2n1 the T/C (dose: 85.0 mg/kg/injection, schedule: Q01DX Z (oral), vehicle: carboxymethylcellulose (CMC)) was 131 % of control, the T/C (dose: 100.0 mg/kg/injection, schedule: Q01DX009 (ip), vehicle: carboxymethylcellulose (CMC)) was 129 % of control and the T/C (dose: 170.0 mg/kg/injection, schedule: Q01DX Z (ip), vehicle: carboxymethylcellulose (CMC)) was 140 % of control. The T/C (dose: 170.0 mg/kg/injection, schedule: Q01DX Z (oral), vehicle: carboxymethylcellulose (CMC)) was 149 % of control, the T/C (dose: 200.0 mg/kg/injection, schedule: Q01DX009 (ip), vehicle: carboxymethylcellulose (CMC)) was 127 % of control and the T/C (dose: 400.0 mg/kg/injection, schedule: Q01DX009 (ip), vehicle: carboxymethylcellulose (CMC)) was 129 % of control. For the same molecule, the T/C [2] was 130 % of control, the T/C (dose: 680.0 mg/kg/injection, schedule: Q01DX Z (oral), vehicle: carboxymethylcellulose (CMC)) was 137 % of control and the survivor count (dose: 800.0 mg/kg/injection, schedule: Q01DX009 (ip), vehicle: carboxymethylcellulose (CMC)) was 2 of 6.

With NNC(=S)Nc1ccccc1 the survivor count (dose: 10.0 mg/kg/injection, schedule: Q01DX009 (ip), vehicle: saline with Tween-80) was 5 of 6 and the survivor count (dose: 20.0 mg/kg/injection, schedule: Q01DX009 (ip), vehicle: saline with Tween-80) was 2 of 6.

CCCCC(I)C(C)(C)[n+]1ccccc1 (stereo not given) was tested, and the survivor count [9] was 0 of 6, the survivor count [6] was 0 of 6 and the survivor count [7] was 0 of 6.
